Several values for one entry are separate records, joined by “and”; a condition that tells them apart may be missing. Equal entries are not always repeated. This is one part of the list. Shown are side measurements of this screen, not its main read-out; they come without a call. Compounds called inactive in the main read-out are mostly missing here. The note in brackets gives the kind of curve behind each potency; many fits are weak.
Experiment: qHTS Assay for Modulators of Lamin A Splicing
Details: HeLa LMNA splicing GFP/RFP minigene ratio, 48 h
How it was run: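 S3 HeLa cells stably expressing lamin A-EGFP splicing minigene plus DsRed2, 600 cells/well, 48 h compound exposure at 37C. Laser-scanning cytometry; analysed as GFP (500-530 nm)/RFP (575-640 nm) total intensity ratio; 0.5% DMSO vehicle.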

[1] = measured here: GFP splicing reporter channel
[2] = measured here: RFP viability control channel

Row | SMILES | AC50 [1] | AC50 [2]
1 | CC1(C)C(C=C(Cl)Cl)C1C(=O)OCc1cccc(Oc2ccccc2)c1 (stereo unspecified) | 25.1 µM [falling, single point] | 22.4 µM [falling, single point]
2 | O=C1N(c2cccc(Cl)c2)C(c2cccnc2)N2CCCN12 (stereo unspecified) | 5.62 µM [rising, single point] | 5.62 µM [rising, single point]
3 | CCC(=NCc1ccco1)c1c(O)n(-c2ccccc2)c(=O)[nH]c1=O | – | 28.2 µM [rising, single point]
4 | Cc1ccc(NC(=O)Nc2ccc3nc(N4CCN(C)CC4)cc(C)c3c2)cc1F | – | 12.6 µM [rising, partial curve]
5 | NP(=O)(Oc1ccc(Cl)cc1)Oc1ccc(Cl)cc1 | 35.5 µM [falling, single point] | –
6 | O=c1[nH]cc(F)c(=O)[nH]1 | 2.82 µM [rising, full curve] and 4.47 nM [falling, full curve, poor fit] and 20 nM [falling, full curve] | 11.2 nM [rising, full curve, poor fit] and 126 nM [rising, full curve, poor fit] and 1.26 µM [rising, full curve]
7 | O=C(c1cc2nc(-c3ccccc3)cc(-c3ccccc3)n2n1)N1CCC2(CC1)OCCO2 | – | 14.1 µM [rising, partial curve]
8 | CCC(COC(=O)c1cc(OC)c(OC)c(OC)c1)(c1ccccc1)N(C)C (stereo unspecified) | 8.91 µM [falling, partial curve, poor fit] | 0.00891 µM [falling, full curve, poor fit]
9 | CCn1ccnc1CN1CCCC(C(=O)c2cc(C)c(OC)c(C)c2)C1 (stereo unspecified) | 20 µM [falling, partial curve] | 12.6 µM [falling, partial curve, poor fit]
10 | COc1cc2[nH]c(=O)n(-c3ccc(C)cc3)c(=O)c2cc1OC | 3.98 µM [falling, partial curve] | 1 µM [falling, partial curve]
11 | O=C(C1CC(c2ccc(Cl)c(Cl)c2)=NO1)N1CCC2(CC1)OCCO2 (stereo unspecified) | – | 0.398 µM [rising, full curve, poor fit]
12 | CCC(=O)N1N=C2C3CCN(CC3)C2C1c1ccc(C)cc1 (stereo unspecified) | 0.112 µM [falling, full curve] | 0.141 µM [falling, full curve, poor fit]
13 | CCOC(=O)/C(=N\Nc1ccccc1)N1CC1 | – | 7.08 µM [rising, partial curve, poor fit]
14 | Cc1cccc(NC(=O)C2CCCN(S(=O)(=O)c3ccc4c(c3)oc(=O)n4C)C2)c1 (stereo unspecified) | – | 0.0501 µM [falling, full curve, poor fit]
15 | CC(C)NS(=O)(=O)c1ccc(OCC(=O)N2CCN(Cc3ccccc3)CC2)c(Cl)c1 | – | 17.8 µM [rising, partial curve, poor fit]
16 | Cc1ccc(O)c(C(=O)c2cc(C(=O)NCCC(C)C)c(=O)n(CCC(C)C)c2)c1 | – | 35.5 µM [rising, single point]

An excerpt from above in order of formula weight, descending:
Row | SMILES | AC50 [1] | AC50 [2]
1 | CC1(C)C(C=C(Cl)Cl)C1C(=O)OCc1cccc(Oc2ccccc2)c1 (stereo unspecified) | 25.1 µM [falling, single point] | 22.4 µM [falling, single point]
8 | CCC(COC(=O)c1cc(OC)c(OC)c(OC)c1)(c1ccccc1)N(C)C (stereo unspecified) | 8.91 µM [falling, partial curve, poor fit] | 0.00891 µM [falling, full curve, poor fit]
12 | CCC(=O)N1N=C2C3CCN(CC3)C2C1c1ccc(C)cc1 (stereo unspecified) | 0.112 µM [falling, full curve] | 0.141 µM [falling, full curve, poor fit]

The listing continues.

Row | SMILES | AC50 [1] | AC50 [2]
17 | FC(F)(F)c1ccc2c(c1)ncn2C1CCN(Cc2nnnn2C2CCCCC2)CC1 | 12.6 µM [rising, single point] | 17.8 µM [rising, single point]
18 | CCN1CCN(c2cc(N3CCCC3)c([N+](=O)[O-])cc2F)CC1 | – | 31.6 µM [rising, single point]
19 | O=C(NC1CN2CCC1CC2)c1cc(Cl)c([N+](=O)[O-])c2nc[nH]c12 (stereo unspecified) | 17.8 µM [rising, single point] | 31.6 µM [rising, single point]
20 | CCCCCn1c(=O)c(C(=O)Nc2ccncc2)c(O)c2ccccc21 | – | 2.51 µM [rising, full curve]
21 | O=C(CSC1c2ccccc2-c2ccccc21)N/N=C/c1ccccc1O | – | 14.1 µM [rising, partial curve]
22 | CN1C2CCC1CC(OC(c1ccccc1)c1ccccc1N)C2 (stereo unspecified) | – | 6.31 µM [falling, partial curve, poor fit]
23 | Cc1ccc(Oc2cnn(-c3ccccc3)c(=O)c2Br)cc1 | 31.6 µM [rising, single point] | 12.6 µM [rising, single point]
24 | CC/C(=C\C=C\[C@@H]1C=C[C@@H]2CCC[C@H]2[C@@H]1C(=O)c1ccc[nH]1)[C@@H]1O[C@@H]([C@@H](C)C(=O)O)CC[C@@H]1C | 3.98 µM [rising, partial curve] | 2.82 µM [rising, full curve]
25 | O=Cc1cn(Cc2cccc(F)c2)c2ccccc12 | 10 µM [rising, single point] | 15.8 µM [rising, single point]
26 | COCCCn1c(N)c(C(=O)Nc2sc3c(c2C(=O)OC)CCCC3)c2nc3ccccc3nc21 | – | 14.1 µM [falling, single point]
27 | N#Cc1c(Cl)nc(Cl)c2c1CCN(Cc1ccccc1)C2 | 1.58 µM [rising, partial curve, poor fit] | –
28 | c1csc(-c2nnc(Cc3cccc4ccccc34)o2)c1 | 25.1 µM [rising, single point] | 35.5 µM [rising, single point]
29 | COC(=O)c1ccccc1NC(=O)c1cccn(Cc2cccc(Cl)c2)c1=O | 0.0398 µM [falling, full curve, poor fit] | 35.5 µM [rising, single point]
30 | CC1CC(C)CN(CC(=O)c2ccc(OC(F)F)cc2)C1 (stereo unspecified) | 0.708 µM [falling, full curve, poor fit] | –
31 | OCCN1CCN(CCCN2c3ccccc3Sc3ccc(C(F)(F)F)cc32)CC1 | 3.98 µM [falling, partial curve, poor fit] and 6.31 µM [falling, partial curve] and 15.8 µM [falling, partial curve] | –
32 | Cc1ccccc1-n1c(O)c(/C=C2/C(c3ccccc3)=Nc3ccccc32)c(=O)[nH]c1=O | – | 5.01 µM [rising, partial curve]

Reference: PubChem BioAssay AID1487 (National Center for Advancing Translational Sciences (NCATS), 2009)
